Reference: patent publication US20050119176A1 (BURNHAM INSTITUTE, published 2005)
No constants are given. Whether binding was seen depends on the method and setting. Some results given as binding are weak or reduced against the parent protein; the word gives no strength.

Amino acid sequences for entries named in this document (tags omitted). Residues count along the entry.
UniProt P98170, residues 124-240: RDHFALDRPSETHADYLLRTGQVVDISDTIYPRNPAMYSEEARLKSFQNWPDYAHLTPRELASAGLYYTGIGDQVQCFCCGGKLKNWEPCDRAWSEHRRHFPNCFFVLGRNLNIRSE

Target: GST-BIR2 (glutathione-S-transferase-BIR2 fusion protein) (human) (UniProt P98170)
Test: plate assay: biotinylated peptide on Neutravidin, GST-XIAP BIR2 added, anti-GST detection, FIG. 45I

binding: binds
Binder: AVPIAQK (biotin, position not stated) [biotinylated SMAC 7-mer peptide]
